Measured values from patent US5456923A, “Method of manufacturing solid dispersion” (priority 1991, dated 1995).
Converted amounts (≈) assume the structure as drawn.

Experiment: physchem
Conditions: jp test solution 2

SMILES: COC(=O)C1=C(C)NC(C)=C(C(=O)OC)C1c1ccccc1[N+](=O)[O-] [nifedipine]
- solubility at 24 h: 5.6 µg/mL (≈ 16.2 µM)
